Binding data for eleven molecules are collected here from paper PMC7515921, “MFSD7C switches mitochondrial ATP synthesis to thermogenesis in response to heme” (Nature Communications, 2020).

No constants are given. Whether binding was seen depends on the method and setting. Binding seen in cells or lysates may run through a third protein. Here binding means that the protein was enriched with, or labelled near, the bait; the list need not be complete. Sequences can lack the tags named with a protein.

In the test the target is T1, MFSD7C tagged with both Myc and FLAG epitopes (murine) (mouse) (UniProt Q91X85).
T1 sequence: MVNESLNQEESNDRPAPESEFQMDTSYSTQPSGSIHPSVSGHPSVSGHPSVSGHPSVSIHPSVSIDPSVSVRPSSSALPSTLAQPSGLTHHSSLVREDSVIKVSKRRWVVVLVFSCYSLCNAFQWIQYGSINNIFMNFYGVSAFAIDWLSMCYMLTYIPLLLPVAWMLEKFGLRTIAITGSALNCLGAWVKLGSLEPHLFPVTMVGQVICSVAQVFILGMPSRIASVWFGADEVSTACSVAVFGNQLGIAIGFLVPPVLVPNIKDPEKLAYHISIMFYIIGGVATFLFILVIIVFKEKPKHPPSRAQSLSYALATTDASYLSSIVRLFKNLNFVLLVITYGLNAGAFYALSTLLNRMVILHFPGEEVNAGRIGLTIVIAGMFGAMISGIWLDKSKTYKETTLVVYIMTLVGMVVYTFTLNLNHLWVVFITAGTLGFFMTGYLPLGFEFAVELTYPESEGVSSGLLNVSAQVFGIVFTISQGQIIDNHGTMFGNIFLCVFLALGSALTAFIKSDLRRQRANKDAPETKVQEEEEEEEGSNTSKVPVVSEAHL
Briefly: affinity purification with mass spectrometry; lysate of MH-S cells expressing MFSD7C-FLAG-Myc (control: GFP alone); 20 mM Tris-HCl pH 7.4, 150 mM NaCl, 0.1% NP-40, 10% glycerol; anti-FLAG beads, 3x FLAG peptide elution, then anti-Myc beads; LC-MS/MS.

B1: Tm9sf3 (protein, UniProt Q9ET30 27-587)
chain: DEHEHTYQDKEEVVLWMNTVGPYHNRQETYKYFSLPFCVGSKKSISHYHETLGEALQGVELEFSGLDIKFKDDVMPGTYCEIDLDKEKRDAFVYAIKNHYWYQMYIDDLPIWGIVGEADENGEDYYLWTYKKLEIGFNGNRIVDVNLTSEGKVKLVPNTKIQMSYSVKWKKSDVKFEDRFDKYLDPSFFQHRIHWFSIFNSFMMVIFLVGLVSMILMRTLRKDYARYSKEEEMDDMDRDLGDEYGWKQVHGDVFRPSSHPLIFSSLIGSGCQIFAVSLIVIIVAMIEDLYTERGSMLSTAIFVYAATSPVNGYFGGSLYARQGGRRWIKQMFIGAFLIPAMVCGTAFFINFIAIYYHASRAIPFGTMVAVCCICFFVILPLNLVGTILGRNLSGQPNFPCRVNAVPRPIPEKKWFMEPAVIVCLGGILPFGSIFIEMYFIFTSFWAYKIYYVYGFMMLVLVILCIVTVCVTIVCTYFLLNAEDYRWQWTSFLSAASTAIYVYMYSFYYYFFKTKMYGLFQTSFYFGYMAVFSTALGIMCGAIGYMGTSAFVRKIYTNVKID
B1: the binding result is “binds”.

B2: Scamp3 (protein, UniProt O35609 1-349)
chain: MAQSRDTGNPFPDSGELDNPFQDPAVIQHRPSQQYATLDVYNPFENREPPPAYEPPAPAPAPLPPPSAPSVQSSRKLSPTEPRNYGSYSTQASAAAATAELLKKQEELNRKAEELDRRERELQHVALGGAGTRQNNWPPLPSFCPVKPCFFQDISMEIPQEFQKTVSTMYYLWMCSTLALLLNFFACLARFCVDTGSGSGFGLSMLWLLLFTPCSFVCWYRPMYKAFRSDSSFNFFVFFFIFFVQDVFFVLQAIGIPGWGFSGWVTALVVVGSKPAVAVLMLLVALLFTGIAVLGIVMLKRIHSLYRQTGASFQKAQQEFAAGVFSNPAVRTAAANAAAGAAENAFRAP
As for B2, the binding entry is listed as “binds”.

B3: Nufip2 (protein, UniProt Q5F2E7 1-692)
chain: MEEKPGQPQPQHHHSHHHPHHHPQQQQQQQSHHHHHYYFYNHSHNHHHHHHHQQPHQYLQHGAEGSPKAQPKPLKHEQKHTLQQHQETPKKKTGYGEINGNAGEREISLKSLSSDEATNPISRVLNGNQQVVETSLKQTVKTSTFGKAGIKTKNFIQKNSMDKKNGKSYENKSGETQAVDKTDTIAIPNGVITSSSGYITNGYMSKGADNDGSGSESGYTTPKKRKARRNSAKGCENLNLVQDKIMQETSVPALKQGLETLKPDYSEQKGMRVDGSKPIWKYETGPGGTSRGKPAMGDVLRKSSDIKPGLSSKKFDDRPKGKHASAAASKEDSWTLFKPPPVFPVDNSSAKIVPKISYASKVKENLNKTVQNSSVSPSSSSSSSSTGETQTQSSSRLSQVPMSALKSVTSASFSNGPVLAGTDGSVYPSGGQPLLTTAANTLTPISTGTDSVLQDMSLASAAVEQIKSSLFIYPSNMQTVLLSAQVDLPSQTDQQNLGDIFQNQWGLSFINEPSAGPETVIGKSSDHKVMEVTFQGEYPATLVSQGAEIIPSGTEHPVFPKAYELEKRTSPQVLGHILKPGTTESGALSLDPSHIGDLQKADTSSQGALVFLSKDYEIENQNPLASPTNTLLGSAKEQRYQRGLERNDSWGSFDLRAAIVYHTKEMESIWNLQKQDPKRIITYNEAMDSPDQ
Turning to B3, the binding result was “binds”.

B4: Mlec (protein, UniProt Q6ZQI3 31-291)
chain: PGLGVVGAAGAGLPESVIWAVNAGGEAHVDVHGIHFRKDPLEGRVGRASDYGMKLPILRSTPEDQILYQTERYNEETFGYEVPVKEEGDYVLVLKFAEVYFAQSQQKVFDVRLNGHVVVKDLDIFDRVGHSTAHDEIIPMSIRKGKLSVRGEVSTFTGKLYIEFVKGYYDNPKVCALYILAGTVDDVPKLQPHPGLEKKEEEEEEEEYDEGSNLKRQTNKNRVQSGPRTPNPYASDNSSLMFPILVAFGVFIPTLFCLCRL
Turning to B4, the binding result is “binds”.

B5: Lpxn (protein, UniProt Q99N69 1-386)
chain: MEELDALLEELERCTFQDSEEYSNPVSCHLDQQSTEESKIPQTPKTLSSQGNTSPLKVQLVYATNIQEPNVYSEVQEPKESVLPPKTSAAAQLDELMAHLSEMQAKVSVKADTSRKPLPDQQDHKASLDSMLGDLEQELQDLGIATVPKGYCASCQKPIAGKVIHALGQSWHPEHFVCTHCKEELGSSPFFERSGLAYCSKDYHRLFSPRCAYCAAPITDKVLTAMNKTWHPEHFFCSHCGEVFGAEGFHEKDKKPYCRKDFLAMFSPKCGGCNRPVLENYLSAMNTVWHPECFVCGDCFSSFSSGSFFELDGRPFCELHYHHRRGTLCHDCGQPITGRCISAMGHKFHPEHFVCAFCLTQLPKGIFKEQNNKTYCEKCFTKLFSQ
B5: the binding entry is given as “binds”.

B6: Unc93b (protein, UniProt Q8VCW4 1-598)
chain: MEVEPPLYPVAGAAGPQGDEDRHGVPDGPEAPLDELVGAYPNYNEEEEERRYYRRKRLGVVKNVLAASTGVTLTYGVYLGLLQMQLILHYDETYREVKYGNMGLPDIDSKMLMGINVTPIAALLYTPVLIRFFGTKWMMFLAVGIYALFVSTNYWERYYTLVPSAVALGMAIVPLWASMGNYITRMSQKYYEYSHYKEQDEQGPQQRPPRGSHAPYLLVFQAIFYSFFHLSFACAQLPMIYFLNNYLYDLNHTLINVQSCGTKSQGILNGFNKTVLRTLPRSKNLIVVESVLMAVAFLAMLMVLGLCGAAYRPTEEIDLRSVGWGNIFQLPFKHVRDFRLRHLVPFFIYSGFEVLFACTGFALGYGVCSMGLERLAYLLIAYSLGASASSVLGLLGLWLPRSVPLVAGAGLHLLLTLSLFFWAPAPRVLQHSWIFYFVAALWGVGSALNKTGLSTLLGILYEDKERQDFIFTIYHWWQAVAIFVVYLGSSLPMKAKLAVLLVTLVAAAASYLWMEQKLQQGLVPRQPRIPKPQHKVRGYRYLEEDNSDESDMEGEQGQGDCAEDEAPQAGPLGAEPAGPCRKPCPYEQALGGDGPEEQ
Consider B6, for which the binding result was “binds”.

B7: Sec22b (protein, UniProt O08547 1-215)
chain: MVLLTMIARVADGLPLAASMQEDEQSGRDLQQYQSQAKQLFRKLNEQSPTRCTLEAGAMTFHYIIEQGVCYLVLCEAAFPKKLAFAYLEDLHSEFDEQHGKKVPTVSRPYSFIEFDTFIQKTKKLYIDSRARRNLGSINTELQDVQRIMVANIEEVLQRGEALSALDSKANNLSSLSKKYRQDAKYLNMRSTYAKLAAVAVFFIMLIVYVRFWWL
For B7, the binding result is “binds”.

B8: C2orf18 (protein, UniProt Q8VE96 19-372)
chain: SINTLSAKWADNFVAEGCGGSQEHSFKHPFVQAVGMFLGEFSCLAAFYLLKCQGRRQSASSVEPQQPFNTLLFLPPALCDMTGTSIMYVALNMTSASSFQMLRGAVIIFTGLFSVAFLDRRLAPSQWLGILITIAGLVVVGLADLLSKHDSQHKLSEVITGDLLIIMAQIIIAIQMVLEEKFVYKHNIHPLQAVGIEGFFGFVILSLLLVPMFYIPTASFSGNPRGVLEDALDAFCQVGRQPLIALALLGNISSIAFFNFSGISVTKELSATTRMVLDTLRTIVIWAFTLALGWEIFYPLQILGFLILLMGTALYNGLHRPLLAFLSRRWRLPTQEGEQERLLGDSRTPINEAS
As for B8, the binding result was “binds”.

B9: Atxn10 (protein, UniProt P28658 1-475)
chain: MAAPRMPPSRLSGIMVPAPIQDLEALRALTALFKEQRNRETAPRTIFQRVLDILKKSTHAVELACRDPSQVEHLASSLQLITECFRCLRNACIECSVNQNSIRNLDTIGVAVDLVLLFRELRVEQDSLLTAFRCGLQFLGNVASRNEESQSIVWVHAFPELFMSCLNHPDKKIVAYCSMILFTSLNAERMKDLEENLNIAINVIEAHQKHPASEWPFLIISDHFLKSPELVEAMYGKLSNQERITLLDIVIAKLVGEEQLTKDDISIFVRHAELIANSFMDQCRNVLKLTSEPHTEDKEALVTIRLLDVLCEMTSNTELLGYLQVFPGLMERVIDVLRVIHEVGKESTNIFSPSDSLKAEGDIEHMTEGFKSHLIRLIGNLCYKNKENQDKVNELDGIPLILDSSNIDDNNPFMMQWVVYAVRNLTEDNSQNQDVIAKMEEQGLADASLLKKMGFEIEKSGDKLILKSNNDIPPP
In the case of B9, the binding entry is “binds”.

B10: Tmem165 (protein, UniProt P52875 34-323)
chain: GPEEDLSHRNQEPPAPAQQLQPQPAAVQGLEPARAEKGLTPVAPVHTNKEDAAAQTNLGFIHAFVAAISVIIVSELGDKTFFIAAIMAMRYNRLTVLAGAMLALALMTCLSVLFGYATTVIPRVYTYYVSTALFAIFGIRMLREGLKMSPDEGQEELEEVQAELKKKDEEFQRTKLLNGPDVETGTSTAIPQKKWLHFISPIFVQALTLTFLAEWGDRSQLTTIVLAAREDPYGVAVGGTVGHCLCTGLAVIGGRMIAQKISVRTVTIIGGIVFLAFAFSALFISPESGF
B10: the binding entry was “binds”.

B11: STT3B (protein, UniProt Q3TDQ1 1-823)
chain: MAEPSAPESKHKSSLNSSPWSGLMALGNSRHGHHGPGTQSASSAAAPKPGPPAGLSGGLSQPAGWQSLLSFTILFLAWLAGFSSRLFAVIRFESIIHEFDPWFNYRSTHHLASHGFYEFLNWFDERAWYPLGRIVGGTVYPGLMITAGLIHWILNTLNITVHIRDVCVFLAPTFSGLTSISTFLLTRELWNQGAGLLAACFIAIVPGYISRSVAGSFDNEGIAIFALQFTYYLWVKSVKTGSVFWTMCCCLSYFYMVSAWGGYVFIINLIPLHVFVLLLMQRYSKRVYIAYSTFYIVGLILSMQIPFVGFQPIRTSEHMAAAGVFALLQAYAFLQYLRDRLTKQEFQTLFFLGVSLAAGAVFLSVIYLTYTGYIAPWSGRFYSLWDTGYAKIHIPIIASVSEHQPTTWVSFFFDLHILVCTFPAGLWFCIKNINDERVFVALYAISAVYFAGVMVRLMLTLTPVVCMLSAIAFSNVFEHYLGDDMKRENPPVEDSSDEDDKRNPGNLYDKAGKVRKHVTEQEKPEEGLGPNIKSIVTMLMLMLLMMFAVHCTWVTSNAYSSPSVVLASYNHDGTRNILDDFREAYFWLRQNTDEHARVMSWWDYGYQIAGMANRTTLVDNNTWNNSHIALVGKAMSSNETAAYKIMRSLDVDYVLVIFGGVIGYSGDDINKFLWMVRIAEGEHPKDIREGDYFTQQGEFRVDKAGSPTLLNCLMYKMSYYRFGEMQLDFRTPPGFDRTRNAEIGNKDIKFKHLEEAFTSEHWLVRIYKVKAPDNRETLGHKPRVTNIVPKQKYLSKKTTKRKRGYVKNKLVFKKGKKTSKKTV
As for B11, the binding entry is on record as “binds”.
